This is an account of results in patent US7514406B2, “Methods for inhibiting deacetylase activity” (Fred Hutchinson Cancer Research Center, priority 2001, dated 2009).

The subject of this data set is wild type BY4741 cells vs sir2, hst1, hst2, hst3, hst4 deletion mutants. The data set is described as follows: Whole genome DNA microarray transcriptional profiling. Type of data set: cell-based, S. cerevisiae. Conditions: 15 μM S1. The source says:
In addition to SIR2, the S. cerevisiae genome encodes four SIR2 homologues: HST1-4 (Homologue of Sir Two) (Brachmann, C. B., et al. (1995) Genes Dev. 9, 2888-902). Hst2p is located in the cytoplasm and is responsible for virtually all the NAD^+-dependent deacetylase activity detected in a cellular lysate (Smith, J. S., et al., (2000) Proc. Natl. Acad. Sci. USA 97, 6658-63). Its relevant biological substrate is unknown. Hst1p is required for transcriptional repression of meiotic genes (Xie, J., et al. (1999) EMBO J. 18, 6448-54), whereas little is known about the cellular function of Hst3p or Hst4p.
Strains for the DNA array experiments for the whole genome analysis were obtained from Research Genetics (wild type BY4741: MATa his3, leu2, met15, […] or isogenic sir2, hst1, hst2, hst3 and hst4 deletion mutants). Several colonies from fresh cultures were inoculated into synthetic complete medium with 2% glucose, grown overnight at 30° C., diluted to 0.5−1×10^6 cell/ml and grown for an additional 6-9 hours until reaching a density of 0.5−1×10^7 cells/ml. […] Total RNA was extracted using the hot acid phenol method. […] Briefly, yeast microarrays were constructed employing a set of ˜6200 or specific PCR primer pairs (Research Genetics, Huntsville, Ala.), which were used to amplify each open reading frame (orf) of the yeast genome. […]

Each structure is given as a SMILES string.

Regarding `O=C1CCc2c(ccc3ccccc23)O1` [S1, 1,2-dihydro-3H-naphtho[2,1-b]pyran-3-one], the “share of transcriptional changes mediated through HST1” value is listed as 9% and the “share of transcriptional changes mediated through SIR2” value is 88%.
